Measurements reported in publication PMC12579238.
These are yes or no findings as the source states them, for the method shown. Binding seen in cells or lysates may run through a third protein. These calls come from enrichment with a bait or labelling near it, and not all partners need be listed.

T1: CLN7 (human (endogenous in SH-SY5Y)) (UniProt Q8NHS3)
T1 sequence: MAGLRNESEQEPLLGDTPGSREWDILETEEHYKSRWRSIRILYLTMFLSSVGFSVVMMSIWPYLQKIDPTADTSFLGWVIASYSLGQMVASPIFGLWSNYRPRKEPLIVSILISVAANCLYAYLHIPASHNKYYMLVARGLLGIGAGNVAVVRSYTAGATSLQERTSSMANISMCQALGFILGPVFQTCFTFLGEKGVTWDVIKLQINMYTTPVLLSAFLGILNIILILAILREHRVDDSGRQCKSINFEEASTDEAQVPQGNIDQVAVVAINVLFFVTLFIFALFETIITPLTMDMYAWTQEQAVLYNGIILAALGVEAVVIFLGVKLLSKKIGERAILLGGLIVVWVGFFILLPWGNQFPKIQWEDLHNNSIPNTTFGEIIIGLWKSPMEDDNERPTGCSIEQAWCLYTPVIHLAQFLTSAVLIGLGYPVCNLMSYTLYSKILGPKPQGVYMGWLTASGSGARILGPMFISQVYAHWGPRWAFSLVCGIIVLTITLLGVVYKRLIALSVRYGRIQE


Target: T1, CLN7 (human (endogenous in SH-SY5Y))
Assay: affinity purification with mass spectrometry; endogenous CLN7 immunoprecipitated from 2.5 mg SH-SY5Y lysate with a polyclonal anti-CLN7 antibody raised against L9 (351-421aa, Proteintech) on G-sepharose beads; IgG as non-specific binding control; 4 independent replicates; cells under steady state culture conditions

| binding | Binder |
| --- | --- |
| binds | PRPF6 (protein, UniProt O94906 1-941) MNKKKKPFLGMPAPLGYVPGLGRGATGFTTRSDIGPARDANDPVDDRHAPPGKRTVGDQMKKNQAADDDDEDLNDTNYDEFNGYAGSLFSSGPYEKDDEEADAIYAALDKRMDERRKERREQREKEEIEKYRMERPKIQQQFSDLKRKLAEVTEEEWLSIPEVGDARNKRQRNPRYEKLTPVPDSFFAKHLQTGENHTSVDPRQTQFGGLNTPYPGGLNTPYPGGMTPGLMTPGTGELDMRKIGQARNTLMDMRLSQVSDSVSGQTVVDPKGYLTDLNSMIPTHGGDINDIKKARLLLKSVRETNPHHPPAWIASARLEEVTGKLQVARNLIMKGTEMCPKSEDVWLEAARLQPGDTAKAVVAQAVRHLPQSVRIYIRAAELETDIRAKKRVLRKALEHVPNSVRLWKAAVELEEPEDARIMLSRAVECCPTSVELWLALARLETYENARKVLNKARENIPTDRHIWITAAKLEEANGNTQMVEKIIDRAITSLRANGVEINREQWIQDAEECDRAGSVATCQAVMRAVIGIGIEEEDRKHTWMEDADSCVAHNALECARAIYAYALQVFPSKKSVWLRAAYFEKNHGTRESLEALLQRAVAHCPKAEVLWLMGAKSKWLAGDVPAARSILALAFQANPNSEEIWLAAVKLESENDEYERARRLLAKARSSAPTARVFMKSVKLEWVQDNIRAAQDLCEEALRHYEDFPKLWMMKGQIEEQKEMMEKAREAYNQGLKKCPHSTPLWLLLSRLEEKIGQLTRARAILEKSRLKNPKNPGLWLESVRLEYRAGLKNIANTLMAKALQECPNSGILWSEAIFLEARPQRRTKSVDALKKCEHDPHVLLAVAKLFWSQRKITKAREWFHRTVKIDSDLGDAWAFFYKFELQHGTEEQQEEVRKRCESAEPRHGELWCAVSKDIANWQKKIGDILRLVAGRIKNTF |
| binds | PRKRA (protein, UniProt O75569 1-313) MSQSRHRAEAPPLEREDSGTFSLGKMITAKPGKTPIQVLHEYGMKTKNIPVYECERSDVQIHVPTFTFRVTVGDITCTGEGTSKKLAKHRAAEAAINILKANASICFAVPDPLMPDPSKQPKNQLNPIGSLQELAIHHGWRLPEYTLSQEGGPAHKREYTTICRLESFMETGKGASKKQAKRNAAEKFLAKFSNISPENHISLTNVVGHSLGCTWHSLRNSPGEKINLLKRSLLSIPNTDYIQLLSEIAKEQGFNITYLDIDELSANGQYQCLAELSTSPITVCHGSGISCGNAQSDAAHNALQYLKIIAERK |

The remaining lines, values behind:

| Binder | binding |
| --- | --- |
| NUFIP2 (protein, UniProt Q7Z417 1-695) MEEKPGQPQPQHHHSHHHPHHHPQQQQQQPHHHHHYYFYNHSHNHHHHHHHQQPHQYLQHGAEGSPKAQPKPLKHEQKHTLQQHQETPKKKTGYGELNGNAGEREISLKNLSSDEATNPISRVLNGNQQVVDTSLKQTVKANTFGKAGIKTKNFIQKNSMDKKNGKSYENKSGENQSVDKSDTIPIPNGVVTNNSGYITNGYMGKGADNDGSGSESGYTTPKKRKARRNSAKGCENLNIVQDKIMQQETSVPTLKQGLETFKPDYSEQKGNRVDGSKPIWKYETGPGGTSRGKPAVGDMLRKSSDSKPGVSSKKFDDRPKGKHASAVASKEDSWTLFKPPPVFPVDNSSAKIVPKISYASKVKENLNKTIQNSSVSPTSSSSSSSSTGETQTQSSSRLSQVPMSALKSVTSANFSNGPVLAGTDGNVYPPGGQPLLTTAANTLTPISSGTDSVLQDMSLTSAAVEQIKTSLFIYPSNMQTMLLSTAQVDLPSQTDQQNLGDIFQNQWGLSFINEPSAGPETVTGKSSEHKVMEVTFQGEYPATLVSQGAEIIPSGTEHPVFPKAYELEKRTSPQVLGSILKSGTTSESGALSLEPSHIGDLQKADTSSQGALVFLSKDYEIESQNPLASPTNTLLGSAKEQRYQRGLERNDSWGSFDLRAAIVYHTKEMESIWNLQKQDPKRIITYNEAMDSPDQ | binds |
| NOP2 (protein, UniProt P46087 1-812) MGRKLDPTKEKRGPGRKARKQKGAETELVRFLPAVSDENSKRLSSRARKRAAKRRLGSVEAPKTNKSPEAKPLPGKLPKGISAGAVQTAGKKGPQSLFNAPRGKKRPAPGSDEEEEEEDSEEDGMVNHGDLWGSEDDADTVDDYGADSNSEDEEEGEALLPIERAARKQKAREAAAGIQWSEEETEDEEEEKEVTPESGPPKVEEADGGLQINVDEEPFVLPPAGEMEQDAQAPDLQRVHKRIQDIVGILRDFGAQREEGRSRSEYLNRLKKDLAIYYSYGDFLLGKLMDLFPLSELVEFLEANEVPRPVTLRTNTLKTRRRDLAQALINRGVNLDPLGKWSKTGLVVYDSSVPIGATPEYLAGHYMLQGASSMLPVMALAPQEHERILDMCCAPGGKTSYMAQLMKNTGVILANDANAERLKSVVGNLHRLGVTNTIISHYDGRQFPKVVGGFDRVLLDAPCSGTGVISKDPAVKTNKDEKDILRCAHLQKELLLSAIDSVNATSKTGGYLVYCTCSITVEENEWVVDYALKKRNVRLVPTGLDFGQEGFTRFRERRFHPSLRSTRRFYPHTHNMDGFFIAKFKKFSNSIPQSQTGNSETATPTNVDLPQVIPKSENSSQPAKKAKGAAKTKQQLQKQQHPKKASFQKLNGISKGADSELSTVPSVTKTQASSSFQDSSQPAGKAEGIREPKVTGKLKQRSPKLQSSKKVAFLRQNAPPKGTDTQTPAVLSPSKTQATLKPKDHHQPLGRAKGVEKQQLPEQPFEKAAFQKQNDTPKGPQPPTVSPIRSSRPPPAKRKKSQSRGNSQLLLS | binds |
| NCAPD3 (protein, UniProt P42695 1-1498) MVALRGLGSGLQPWCPLDLRLEWVDTVWELDFTETEPLDPSIEAEIIETGLAAFTKLYESLLPFATGEHGSMESIWTFFIENNVSHSTLVALFYHFVQIVHKKNVSVQYREYGLHAAGLYFLLLEVPGSVANQVFHPVMFDKCIQTLKKSWPQESNLNRKRKKEQPKSSQANPGRHRKRGKPPRREDIEMDEIIEEQEDENICFSARDLSQIRNAIFHLLKNFLRLLPKFSLKEKPQCVQNCIEVFVSLTNFEPVLHECHVTQARALNQAKYIPELAYYGLYLLCSPIHGEGDKVISCVFHQMLSVILMLEVGEGSHRAPLAVTSQVINCRNQAVQFISALVDELKESIFPVVRILLQHICAKVVDKSEYRTFAAQSLVQLLSKLPCGEYAMFIAWLYKYSRSSKIPHRVFTLDVVLALLELPEREVDNTLSLEHQKFLKHKFLVQEIMFDRCLDKAPTVRSKALSSFAHCLELTVTSASESILELLINSPTFSVIESHPGTLLRNSSAFSYQRQTSNRSEPSGEINIDSSGETVGSGERCVMAMLRRRIRDEKTNVRKSALQVLVSILKHCDVSGMKEDLWILQDQCRDPAVSVRKQALQSLTELLMAQPRCVQIQKAWLRGVVPVVMDCESTVQEKALEFLDQLLLQNIRHHSHFHSGDDSQVLAWALLTLLTTESQELSRYLNKAFHIWSKKEKFSPTFINNVISHTGTEHSAPAWMLLSKIAGSSPRLDYSRIIQSWEKISSQQNPNSNTLGHILCVIGHIAKHLPKSTRDKVTDAVKCKLNGFQWSLEVISSAVDALQRLCRASAETPAEEQELLTQVCGDVLSTCEHRLSNIVLKENGTGNMDEDLLVKYIFTLGDIAQLCPARVEKRIFLLIQSVLASSADADHSPSSQGSSEAPASQPPPQVRGSVMPSVIRAHAIITLGKLCLQHEDLAKKSIPALVRELEVCEDVAVRNNVIIVMCDLCIRYTIMVDKYIPNISMCLKDSDPFIRKQTLILLTNLLQEEFVKWKGSLFFRFVSTLIDSHPDIASFGEFCLAHLLLKRNPVMFFQHFIECIFHFNNYEKHEKYNKFPQSEREKRLFSLKGKSNKERRMKIYKFLLEHFTDEQRFNITSKICLSILACFADGILPLDLDASELLSDTFEVLSSKEIKLLAMRSKPDKDLLMEEDDMALANVVMQEAQKKLISQVQKRNFIENIIPIIISLKTVLEKNKIPALRELMHYLREVMQDYRDELKDFFAVDKQLASELEYDMKKYQEQLVQEQELAKHADVAGTAGGAEVAPVAQVALCLETVPVPAGQENPAMSPAVSQPCTPRASAGHVAVSSPTPETGPLQRLLPKARPMSLSTIAILNSVKKAVESKSRHRSRSLGVLPFTLNSGSPEKTCSQVSSYSLEQESNGEIEHVTKRAISTPEKSISDVTFGAGVSYIGTPRTPSSAKEKIEGRSQGNDILCLSLPDKPPPQPQQWNVRSPARNKDTPACSRRSLRKTPLKTAN | binds |
| PDS5A (protein, UniProt Q29RF7 1-1337) MDFTAQPKPATALCGVVSADGKIAYPPGVKEITDKITTDEMIKRLKMVVKTFMDMDQDSEDEKQQYLPLALHLASEFFLRNPNKDVRLLVACCLADIFRIYAPEAPYTSHDKLKDIFLFITRQLKGLEDTKSPQFNRYFYLLENLAWVKSYNICFELEDCNEIFIQLFRTLFSVINNSHNKKVQMHMLDLMSSIIMEGDGVTQELLDSILINLIPAHKNLNKQSFDLAKVLLKRTVQTIEACIANFFNQVLVLGRSSVSDLSEHVFDLIQELFAIDPHLLLSVMPQLEFKLKSNDGEERLAVVRLLAKLFGSKDSDLATQNRPLWQCFLGRFNDIHVPVRLESVKFASHCLMNHPDLAKDLTEYLKVRSHDPEEAIRHDVIVTIITAAKRDLALVNDQLLGFVRERTLDKRWRVRKEAMMGLAQLYKKYCLHGEAGKEAAEKVSWIKDKLLHIYYQNSIDDKLLVEKIFAQYLVPHNLETEERMKCLYYLYASLDPNAVKALNEMWKCQNMLRSHVRELLDLHKQPTSEANCSAMFGKLMTIAKNLPDPGKAQDFVKKFNQVLGDDEKLRSQLELLISPTCSCKQADICVREIARKLANPKQPTNPFLEMVKFLLERIAPVHIDSEAISALVKLMNKSIEGTADDEEEGVSPDTAIRSGLELLKVLSFTHPTSFHSAETYESLLQCLRMEDDKVAEAAIQIFRNTGHKIETDLPQIRSTLIPILHQKAKRGTPHQAKQAVHCIHAIFTNKEVQLAQIFEPLSRSLNADVPEQLITPLVSLGHISMLAPDQFASPMKSVVANFIVKDLLMNDRSTGEKNGKLWSPDEEVSPEVLAKVQAIKLLVRWLLGMKNNQSKSANSTLRLLSAMLVSEGDLTEQKRISKSDMSRLRLAAGSAIMKLAQEPCYHEIITPEQFQLCALVINDECYQVRQIFAQKLHKALVKLLLPLEYMAIFALCAKDPVKERRAHARQCLLKNISIRREYIKQNPMATEKLLSLLPEYVVPYMIHLLAHDPDFTRSQDVDQLRDIKECLWFMLEVLMTKNENNSHAFMKKMAENIKLTRDAQSPDESKTNEKLYTVCDVALCVINSKSALCNADSPKDPVLPMKFFTQPEKDFCNDKSYISEETRVLLLTGKPKPAGVLGAVNKPLSATGRKPYVRSTGTETGSNINVNSELNPSTGNRSREQSSEAAETGVSENEENPVRIISVTPVKNIDPVKNKEINSDQATQGNISSDRGKKRTVTAAGAENIQQKTDEKVDESGPPAPSKPRRGRRPKSESQGNATKNDDLNKPINKGRKRAAVGQESPGGLEAGNAKAPKLQDLAKKAAPAERQIDLQR | binds |
